Results taken from PMC12304194.
Results are given in words; binding and its absence hold for the method and conditions named. In cells and extracts the contact can be indirect. Some results given as binding are weak or reduced against the parent protein; the word gives no strength. For some assays here: Where a sequence is shown, tags or fusion partners need not be part of it.

Amino acid sequences for entries named in this document (tags omitted).
UniProt O00401: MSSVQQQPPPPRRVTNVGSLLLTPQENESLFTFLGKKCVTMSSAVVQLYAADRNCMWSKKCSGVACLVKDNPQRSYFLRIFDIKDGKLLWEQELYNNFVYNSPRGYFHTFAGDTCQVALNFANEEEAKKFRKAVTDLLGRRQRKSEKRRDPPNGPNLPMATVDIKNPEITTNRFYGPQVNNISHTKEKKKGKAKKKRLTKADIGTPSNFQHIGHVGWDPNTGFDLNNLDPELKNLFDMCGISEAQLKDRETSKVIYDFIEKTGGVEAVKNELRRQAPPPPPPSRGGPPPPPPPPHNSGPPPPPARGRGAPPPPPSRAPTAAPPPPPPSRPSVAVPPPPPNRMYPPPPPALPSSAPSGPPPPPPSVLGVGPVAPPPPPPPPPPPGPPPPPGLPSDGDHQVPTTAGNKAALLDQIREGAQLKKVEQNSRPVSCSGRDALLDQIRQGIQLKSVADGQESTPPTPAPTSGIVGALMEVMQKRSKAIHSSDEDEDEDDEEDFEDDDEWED

Assays:
Flag-tagged FBXW2 = molecular target: T1, Flag-tagged FBXW2 (UniProt Q9UKT8); experiment: co-IP; Flag-tagged FBXW2 and Myc-tagged WASL transfected into HEK293T cells; Co-IP and immunoblot with the indicated antibodies
T1 sequence: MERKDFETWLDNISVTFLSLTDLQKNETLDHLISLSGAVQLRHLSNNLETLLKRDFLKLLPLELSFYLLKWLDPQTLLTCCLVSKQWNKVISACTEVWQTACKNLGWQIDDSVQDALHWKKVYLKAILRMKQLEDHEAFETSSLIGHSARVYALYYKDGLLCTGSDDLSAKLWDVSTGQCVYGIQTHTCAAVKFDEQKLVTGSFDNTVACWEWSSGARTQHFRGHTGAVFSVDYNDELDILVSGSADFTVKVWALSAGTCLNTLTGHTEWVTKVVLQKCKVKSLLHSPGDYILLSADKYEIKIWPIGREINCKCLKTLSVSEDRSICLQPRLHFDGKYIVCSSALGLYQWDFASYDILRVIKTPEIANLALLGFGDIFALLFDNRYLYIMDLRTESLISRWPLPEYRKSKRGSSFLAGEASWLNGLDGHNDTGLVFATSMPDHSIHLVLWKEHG

[1] = molecular target: T2, F-box and WD repeat domain-containing protein 2 (FBXW2) (human (endogenous in GC cells)) (UniProt Q9UKT8); experiment: co-IP; endogenous FBXW2 and WASL in GC cells; which protein was precipitated is not told
T2 sequence: T1 sequence

binding (Flag-tagged FBXW2)	binding [1]	Substance
binds		Myc-tagged WASL (from UniProt O00401 1-505)
	binds	WASP-like actin nucleation-promoting factor (WASL) (from UniProt O00401 1-505)
